Data published in patent US10227347B2, “Purinyl-N-hydroxyl pyrimidine formamide derivative, preparation methods and uses thereof” (Guizhou Bailing Group Pharmaceutical CO., LTD., priority 2015, dated 2019).
Some results were stated once for a whole list of compounds, not compound by compound.

The chains behind the UniProt entries cited, without tags or fusion partners.
UniProt Q13547, whole entry, species assumed: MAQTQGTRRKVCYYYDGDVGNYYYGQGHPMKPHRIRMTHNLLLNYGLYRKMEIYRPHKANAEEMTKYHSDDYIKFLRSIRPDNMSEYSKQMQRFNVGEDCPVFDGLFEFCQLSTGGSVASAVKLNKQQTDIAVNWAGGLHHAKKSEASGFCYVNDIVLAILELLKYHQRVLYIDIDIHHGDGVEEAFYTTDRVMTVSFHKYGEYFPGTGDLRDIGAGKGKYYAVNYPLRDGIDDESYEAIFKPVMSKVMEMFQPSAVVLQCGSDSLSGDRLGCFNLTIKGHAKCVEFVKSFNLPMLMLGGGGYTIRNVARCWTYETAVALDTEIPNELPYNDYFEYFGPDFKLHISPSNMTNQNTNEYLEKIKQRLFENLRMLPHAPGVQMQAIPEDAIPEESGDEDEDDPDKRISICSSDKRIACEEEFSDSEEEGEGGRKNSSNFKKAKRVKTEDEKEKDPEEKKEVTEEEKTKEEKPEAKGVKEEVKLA

Molecular target: T1, HDAC1 (Homo sapiens, UniProt Q13547)
T1 construct: purchased BPS Bioscience
Assay: In vitro HDAC1 enzymatic activity inhibition (Lys-Ac-AMC substrate)
Type: biochemical
Experimental: Determining the inhibition capability to HDAC activity through the substrate method of fluorophore 4-amino-7-coumarin coupled Ac-peptide (Lys-Ac-AMC). HDAC1 protein is purchased from BPS Bioscience Company; the reaction buffer system is a modified tris(hydroxymethyl)aminomethane (TRIS) buffer (pH7.0). All small molecule compounds are prepared and dissolved by 100% DMSO (dimethyl sulfoxide). HDAC is prepared into the buffer as per certain concentration to be served as the enzyme solution; trypsin and the fluorophore 4-amino-7-coumarin coupled Ac-peptide substrate are prepared into the buffer as per certain concentration to be served as the substrate solution. Adding the compound into the reaction wells of the 384 well plate at the designed concentration, then adding 15 μL HDAC solution into the reaction wells (adding 15 μL blank buffer into the control well 0) for incubation under ambient temperature for 15 min; then adding 10 μL substrate solution to start reaction; during the reaction, the final concentration of HDAC1 protein is 6 nM, trypsin 0.05 μM and Ac-peptide 8 μM.
Calculating the value of IC50 as per the formula: Y=background data+(top data−background data)/(1+10^((Log IC50−X)*rate of curve))
Where, Y refers to the inhibition ratio (%) and X refers to the compound concentration. […]
Analyzing the result data with the software GraphPad Prism and calculating the value of IC50 as per the formula: Y=background data+(top data−background data)/(1+10^((Log IC50−X)*rate of curve)). Where, Y refers to the inhibition ratio (%) and X refers to the compound concentration.

| SMILES | IC50 |
| --- | --- |
| CN(Cc1nc2c(N3CCOCC3)nc(-c3cnc(N)nc3)nc2n1C)c1ncc(C(=O)NO)cn1 [CLJ-11, 2-(((2-(2-aminopyrimidine-5-yl)-9-methyl-6-morpholine-9H-purine-8-yl))methyl(methyl)amino)-N-hydroxyl pyrimidine-5-formamide] | < 100 nM |
| CNc1ncc(-c2nc(N3CCOCC3)c3nc(CN(C)c4ncc(C(=O)NO)cn4)n(C)c3n2)cn1 [CLJ-12, 2-(((2-(4-aminemethylpyrimidine)-9-methyl-6-morpholine-9H-purine-8-yl))methyl(methyl)amino)-N-hydroxyl pyrimidine-5-formamide] | < 100 nM |
| Cc1ncc(-c2nc(N3CCOCC3)c3nc(CN(C)c4ncc(C(=O)NO)cn4)n(C)c3n2)cn1 [CLJ-13] | < 100 nM |
